Results from PubChem BioAssay AID200 (DTP/NCI, 2004).
The list is a part of this screen's results and no random one: its compounds were picked by chemical class. Other doses and runs of a compound may be missing. T/C gives the treated animals as a percentage of the vehicle group. For survival time, the PubChem record calls one and a half times the control and up active, and a quarter to a half above the control has no call in these data; cut-offs in other NCI protocols can differ. Schedule codes are those of the source, taken here to give the interval after Q, in days (D) or hours (H), and the number of doses after X. Some entries show no survivor count and are marked so; the dose need not have been tolerated. Marks such as (2×) say how often a value occurs here. Some entries were tested several times; the results are listed from low to high.

Test system: B6C3F1 mice, B16 melanoma ip, median survival T/C
Assay: NCI In Vivo Anticancer Drug Screen. Data for tumor model B16 Melanoma (intraperitoneal) in B6C3F1 mice
Settings: T/C endpoint: median survival time, schedule: Q01DX009 (ip), higher T/C = longer survival
Method: The antitumor activity of compounds was measured in mice bearing transplantable tumors. Survival or tumor size were measured and the results are expressed as the measurement made in the treated group (T) divided by the measurement made in the vehicle treated control group (C). The tumor model used in this assay is B16 Melanoma (intraperitoneal) in B6C3F1 mice

[1] = dose: 2.5 mg/kg/injection, vehicle: saline + alcohol
[2] = dose: 5.0 mg/kg/injection, vehicle: saline + alcohol
[3] = dose: 10.0 mg/kg/injection, vehicle: saline + alcohol
[4] = dose: 0.5 mg/kg/injection, vehicle: saline + alcohol
[5] = dose: 1.0 mg/kg/injection, vehicle: saline + alcohol
[6] = dose: 2.0 mg/kg/injection, vehicle: saline + alcohol

Q: `CC(=O)OCC12CCC(C)=CC1OC1C(O)C(OC(C)=O)C2(C)C12CO2` (stereo not given) was tested. Which T/C (dose: 0.13 mg/kg/injection, vehicle: saline) did it give?
A: 106 [survivor count not shown] and 118 % of control [survivor count not shown]

Q: What about the T/C (dose: 0.13 mg/kg/injection, vehicle: water) of the same compound?
A: 114 [survivor count not shown] and 131 % of control [survivor count not shown]

Q: What about the T/C (dose: 0.16 mg/kg/injection, vehicle: saline) of the same compound?
A: 144 % of control [survivor count not shown]

Q: What about the T/C (dose: 0.25 mg/kg/injection, vehicle: saline) of the same compound?
A: 113 [survivor count not shown] and 128 % of control [survivor count not shown]

Q: And the T/C (dose: 0.25 mg/kg/injection, vehicle: water, evaluated on day 45)?
A: 136 % of control [survivor count not shown]

Q: What about the T/C (dose: 0.25 mg/kg/injection, vehicle: water, evaluated on day 60) of the same compound?
A: 120 [survivor count not shown], 126 [survivor count not shown], 133 [survivor count not shown], 135 % of control [survivor count not shown]

Q: What about the T/C (dose: 0.31 mg/kg/injection, vehicle: saline) of the same compound?
A: 142 % of control [survivor count not shown]

Q: What about the T/C (dose: 0.5 mg/kg/injection, vehicle: saline) of the same compound?
A: 126 [survivor count not shown] and 130 % of control [survivor count not shown]

Q: What about the T/C (dose: 0.5 mg/kg/injection, vehicle: water, evaluated on day 45) of the same compound?
A: 132 [survivor count not shown] and 151 % of control [survivor count not shown]

Q: And the T/C (dose: 0.5 mg/kg/injection, vehicle: water, evaluated on day 60)?
A: 125 [survivor count not shown], 133 [survivor count not shown], 136 % of control [survivor count not shown]

Q: What about the T/C (dose: 1.0 mg/kg/injection, vehicle: saline) of the same compound?
A: 123 [survivor count not shown] and 124 % of control [survivor count not shown]

Q: And the T/C (dose: 1.0 mg/kg/injection, vehicle: water, evaluated on day 45)?
A: 138 % of control [survivor count not shown]

Q: What about the T/C (dose: 1.0 mg/kg/injection, vehicle: water, evaluated on day 60) of the same compound?
A: 119 [survivor count not shown], 122 [survivor count not shown], 136 [survivor count not shown], 138 % of control [survivor count not shown]

Q: What about the T/C (dose: 1.25 mg/kg/injection, vehicle: saline) of the same compound?
A: 127 % of control [survivor count not shown]

Q: What about the T/C (dose: 2.0 mg/kg/injection, vehicle: saline) of the same compound?
A: 109 [survivor count not shown] and 127 % of control [survivor count not shown]

Q: And the T/C (dose: 2.0 mg/kg/injection, vehicle: water, evaluated on day 45)?
A: 116 [survivor count not shown] and 136 % of control [survivor count not shown]

Q: And the T/C (dose: 2.0 mg/kg/injection, vehicle: water, evaluated on day 60)?
A: 108 [survivor count not shown], 122 [survivor count not shown], 130 [survivor count not shown], 136 % of control [survivor count not shown]

Q: For `CC1=CC2OC3CC4OC(=O)/C=C/C=C/C(C(C)O)OCC(O)C(C)CC(=O)OCC2(CC1O)C4(C)C31CO1` (stereo not given), which T/C (dose: 156.0 micrograms/kg/injection, vehicle: Klucel (hydroxypropylcellulose) (HPC)) is on record?
A: 188 % of control [survivor count not shown]

Q: And the T/C (dose: 310.0 micrograms/kg/injection, vehicle: Klucel (hydroxypropylcellulose) (HPC))?
A: 193 % of control [survivor count not shown]

Q: What about the T/C (dose: 620.0 micrograms/kg/injection, vehicle: Klucel (hydroxypropylcellulose) (HPC)) of the same compound?
A: 188 % of control [survivor count not shown]

Q: What about the T/C (dose: 1250.0 micrograms/kg/injection, vehicle: Klucel (hydroxypropylcellulose) (HPC)) of the same compound?
A: 210 % of control [survivor count not shown]

Q: `CC(O)C1/C=C/C=C/C(=O)OC2CC3OC4C5OC5(C)C(O)CC4(COC(=O)C(O)C(C)CCO1)C2(C)C31CO1` (stereo not given) was tested. Which T/C [1] did it give?
A: 138 % of control [survivor count not shown]

Q: What about the T/C [2] of the same compound?
A: 164 % of control [survivor count not shown]

Q: And the T/C [3]?
A: 158 % of control [survivor count not shown]

Q: What does the source list for `C[C@@H](O)[C@H]1/C=C/C=C\C(=O)O[C@@H]2C[C@H]3O[C@@H]4[C@@H]5OC5(C)CCC4(COC(=O)[C@H]4O[C@]4(C)[C@@H](O)CO1)[C@]2(C)[C@]31CO1` (stereo not given in full)?
A: T/C (dose: 1.25 mg/kg/injection, vehicle: saline + alcohol): 153 % of control [survivor count not shown]; T/C [1]: 158 % of control [survivor count not shown]; T/C [2]: 145 % of control [survivor count not shown]; T/C [3]: 150 % of control [survivor count not shown]

Q: For `C[C@@H]1CCOC(=O)/C=C/C=C\C(=O)O[C@@H]2C[C@H]3O[C@@H]4[C@@H]5OC5(C)CCC4(COC(=O)[C@H]1O)[C@]2(C)[C@@]31CO1` (stereo not given in full), which T/C (dose: 0.25 mg/kg/injection, vehicle: Klucel (hydroxypropylcellulose) (HPC)) is on record?
A: 121 % of control [survivor count not shown]

Q: What about the T/C (dose: 0.5 mg/kg/injection, vehicle: Klucel (hydroxypropylcellulose) (HPC)) of the same compound?
A: 136 % of control [survivor count not shown]

Q: What about the T/C (dose: 1.0 mg/kg/injection, vehicle: Klucel (hydroxypropylcellulose) (HPC)) of the same compound?
A: 129 % of control [survivor count not shown]

Q: What about the T/C (dose: 2.0 mg/kg/injection, vehicle: Klucel (hydroxypropylcellulose) (HPC)) of the same compound?
A: 150 % of control [survivor count not shown]

Q: What about the T/C (dose: 4.0 mg/kg/injection, vehicle: Klucel (hydroxypropylcellulose) (HPC)) of the same compound?
A: 146 % of control [survivor count not shown]

Q: With `C=C(C)C(=O)OCC12CCC(C)=CC1OC1C(=O)C(OC(=O)C(=C)C)C2(C)C12CO2` (stereo not given) as the compound, how does the T/C (dose: 0.25 mg/kg/injection, vehicle: distilled water + Tween-80, evaluated on day 45) read?
A: 114 % of control [survivor count not shown]

Q: And the T/C (dose: 0.25 mg/kg/injection, vehicle: distilled water + Tween-80, evaluated on day 60)?
A: 137 % of control [survivor count not shown]

Q: What about the T/C (dose: 0.5 mg/kg/injection, vehicle: distilled water + Tween-80, evaluated on day 45) of the same compound?
A: 109 [survivor count not shown] and 138 % of control [survivor count not shown]

Q: And the T/C (dose: 0.5 mg/kg/injection, vehicle: distilled water + Tween-80, evaluated on day 60)?
A: 129 % of control [survivor count not shown] (2×)

Q: What about the T/C (dose: 1.0 mg/kg/injection, vehicle: distilled water + Tween-80, evaluated on day 45) of the same compound?
A: 138 [survivor count not shown] and 147 % of control [survivor count not shown]

Q: And the T/C (dose: 1.0 mg/kg/injection, vehicle: distilled water + Tween-80, evaluated on day 60)?
A: 138 [survivor count not shown] and 154 % of control [survivor count not shown]

Q: And the T/C (dose: 2.0 mg/kg/injection, vehicle: distilled water + Tween-80, evaluated on day 45)?
A: 149 % of control [survivor count not shown]

Q: And the T/C (dose: 2.0 mg/kg/injection, vehicle: distilled water + Tween-80, evaluated on day 60)?
A: 135 % of control [survivor count not shown]

Q: And the T/C (dose: 4.0 mg/kg/injection, vehicle: distilled water + Tween-80)?
A: 142 % of control [survivor count not shown]

Q: With `CC1=C[C@H]2O[C@H]3[C@H](O)[C@@H](OC(=O)CCl)[C@](C)([C@@]2(COC(=O)CCl)CC1)[C@@]31CO1` as the compound, how does the T/C [4] read?
A: 94 % of control [survivor count not shown]

Q: And the T/C [5]?
A: 105 % of control [survivor count not shown]

Q: And the T/C [6]?
A: 110 [survivor count not shown] and 115 % of control [survivor count not shown]

Q: What about the T/C (dose: 4.0 mg/kg/injection, vehicle: saline + alcohol) of the same compound?
A: 121 % of control [survivor count not shown]

Q: And the T/C (dose: 8.0 mg/kg/injection, vehicle: saline + alcohol)?
A: 143 % of control [survivor count not shown]

Q: How did the T/C [4] turn out when `CC(=O)OC[C@]12CCC(C)=C[C@H]1O[C@H]1C(=O)[C@@H](OC(C)=O)[C@@]2(C)[C@]12CO2` was run?
A: 122 % of control [survivor count not shown]

Q: What about the T/C [5] of the same compound?
A: 121 % of control [survivor count not shown]

Q: What about the T/C [6] of the same compound?
A: 135 % of control [survivor count not shown]
